No constants are given. Whether binding was seen depends on the method and setting. Binding seen in cells or lysates may run through a third protein. These calls come from enrichment with a bait or labelling near it, and not all partners need be listed. For some assays here: No binding means not detected with the bait. For some assays here: Sequences can lack the tags named with a protein.

In assay [1] the target is Strep-tagged PEAK3 (ST-PEAK3), wild type (human) (UniProt Q6ZS72).
In assay [2] the target is T1, Strep-tagged PEAK3 (ST-PEAK3), wild type (human), Q6ZS72.
T1 chain: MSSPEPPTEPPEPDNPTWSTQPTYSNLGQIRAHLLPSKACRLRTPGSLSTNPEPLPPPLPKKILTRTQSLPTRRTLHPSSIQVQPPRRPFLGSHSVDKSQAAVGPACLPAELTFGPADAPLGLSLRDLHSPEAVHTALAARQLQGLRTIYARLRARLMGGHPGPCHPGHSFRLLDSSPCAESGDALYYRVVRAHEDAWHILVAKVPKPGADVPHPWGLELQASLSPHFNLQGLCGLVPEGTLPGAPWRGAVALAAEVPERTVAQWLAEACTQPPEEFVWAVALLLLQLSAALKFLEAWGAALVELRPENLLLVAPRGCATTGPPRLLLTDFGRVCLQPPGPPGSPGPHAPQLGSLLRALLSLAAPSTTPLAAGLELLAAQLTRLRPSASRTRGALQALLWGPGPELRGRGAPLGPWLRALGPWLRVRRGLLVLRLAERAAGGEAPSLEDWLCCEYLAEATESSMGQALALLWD
The conditions noted are these: remark: other sources report otherwise.

B1: Pragmin/PEAK2 (protein, UniProt Q86YV5 1-1406)
chain: MHQTLCLNPESLKMSACSDFVEHIWKPGSCKNCFCLRSDHQLVAGPPQPRAGSLPPPPRLPPRPENCRLEDEGVNSSPYSKPTIAVKPTMMSSEASDVWTEANLSAEVSQVIWRRAPGKLPLPKQEDAPVVYLGSFRGVQKPAGPSTSPDGNSRCPPAYTMVGLHNLEPRGERNIAFHPVSFPEEKAVHKEKPSFPYQDRPSTQESFRQKLAAFAGTTSGCHQGPGPLRESLPSEDDSDQRCSPSGDSEGGEYCSILDCCPGSPVAKAASQTAGSRGRHGGRDCSPTCWEQGKCSGPAEQEKRGPSFPKECCSQGPTAHPSCLGPKKLSLTSEAAISSDGLSCGSGSGSGSGASSPFVPHLESDYCSLMKEPAPEKQQDPGCPGVTPSRCLGLTGEPQPPAHPREATQPEPIYAESTKRKKAAPVPSKSQAKIEHAAAAQGQGQVCTGNAWAQKAASGWGRDSPDPTPQVSATITVMAAHPEEDHRTIYLSSPDSAVGVQWPRGPVSQNSEVGEEETSAGQGLSSRESHAHSASESKPKERPAIPPKLSKSSPVGSPVSPSAGGPPVSPLADLSDGSSGGSSIGPQPPSQGPADPAPSCRTNGVAISDPSRCPQPAASSASEQRRPRFQAGTWSRQCRIEEEEEVEQELLSHSWGRETKNGPTDHSNSTTWHRLHPTDGSSGQNSKVGTGMSKSASFAFEFPKDRSGIETFSPPPPPPKSRHLLKMNKSSSDLEKVSQGSAESLSPSFRGVHVSFTTGSTDSLASDSRTCSDGGPSSELAHSPTNSGKKLFAPVPFPSGSTEDVSPSGPQQPPPLPQKKIVSRAASSPDGFFWTQGSPKPGTASPKLNLSHSETNVHDESHFSYSLSPGNRHHPVFSSSDPLEKAFKGSGHWLPAAGLAGNRGGCGSPGLQCKGAPSASSSQLSVSSQASTGSTQLQLHGLLSNISSKEGTYAKLGGLYTQSLARLVAKCEDLFMGGQKKELHFNENNWSLFKLTCNKPCCDSGDAIYYCATCSEDPGSTYAVKICKAPEPKTVSYCSPSVPVHFNIQQDCGHFVASVPSSMLSSPDAPKDPVPALPTHPPAQEQDCVVVITREVPHQTASDFVRDSAASHQAEPEAYERRVCFLLLQLCNGLEHLKEHGIIHRDLCLENLLLVHCTLQAGPGPAPAPAPAPAPAAAAPPCSSAAPPAGGTLSPAAGPASPEGPREKQLPRLIISNFLKAKQKPGGTPNLQQKKSQARLAPEIVSASQYRKFDEFQTGILIYELLHQPNPFEVRAQLRERDYRQEDLPPLPALSLYSPGLQQLAHLLLEADPIKRIRIGEAKRVLQCLLWGPRRELVQQPGTSEEALCGTLHNWIDMKRALMMMKFAEKAVDRRRGVELEDWLCCQYLASAEPGALLQSLKLLQLL
Regarding B1, in assay [1], the binding result is “binds”.

B2: CRKII, P46108-1 1-304 (protein)
chain: MAGNFDSEERSSWYWGRLSRQEAVALLQGQRHGVFLVRDSSTSPGDYVLSVSENSRVSHYIINSSGPRPPVPPSPAQPPPGVSPSRLRIGDQEFDSLPALLEFYKIHYLDTTTLIEPVSRSRQGSGVILRQEEAEYVRALFDFNGNDEEDLPFKKGDILRIRDKPEEQWWNAEDSEGKRGMIPVPYVEKYRPASASVSALIGGNQEGSHPQPLGGPEPGPYAQPSVNTPLPNLQNGPIYARVIQKRVPNAYDKTALALEVGELVKVTKINVSGQWEGECNGKRGHFPFTHVRLLDQQNPDEDFS
For the molecule B2, the binding result in assay [2] is given as “no binding”.

The values are drawn from article PMC8699254.
